The target in the experiment is His-tagged SARS-CoV-2 NSP3 (SARS-CoV-2) (UniProt P0DTD1). In words: affinity purification with mass spectrometry.

Protein sequences, listed by entry. Tags and fused reporters are not part of them.
UniProt Q15629: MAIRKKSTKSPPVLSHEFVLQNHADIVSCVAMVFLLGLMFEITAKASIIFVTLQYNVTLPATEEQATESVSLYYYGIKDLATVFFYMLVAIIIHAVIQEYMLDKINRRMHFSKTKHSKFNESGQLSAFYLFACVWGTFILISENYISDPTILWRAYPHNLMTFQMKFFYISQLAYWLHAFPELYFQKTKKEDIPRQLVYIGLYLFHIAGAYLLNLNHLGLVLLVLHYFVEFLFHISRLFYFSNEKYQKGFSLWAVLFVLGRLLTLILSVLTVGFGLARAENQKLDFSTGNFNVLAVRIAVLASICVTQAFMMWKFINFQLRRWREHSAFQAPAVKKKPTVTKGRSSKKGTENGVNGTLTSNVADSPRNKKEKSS

Data on 1 substance can be found in paper PMC12390733.

No constants are given. Whether binding was seen depends on the method and setting. In cells and extracts the contact can be indirect. Here binding means that the protein was enriched with, or labelled near, the bait; the list need not be complete.

As for TRAM1 (from UniProt Q15629 1-374), the binding entry is “binds”.
